For the assay, the target named is T1, Trim69 wild type, tagged (YFP- or Flag-), of the co-immunoprecipitation (human) (UniProt Q86WT6).
T1 sequence: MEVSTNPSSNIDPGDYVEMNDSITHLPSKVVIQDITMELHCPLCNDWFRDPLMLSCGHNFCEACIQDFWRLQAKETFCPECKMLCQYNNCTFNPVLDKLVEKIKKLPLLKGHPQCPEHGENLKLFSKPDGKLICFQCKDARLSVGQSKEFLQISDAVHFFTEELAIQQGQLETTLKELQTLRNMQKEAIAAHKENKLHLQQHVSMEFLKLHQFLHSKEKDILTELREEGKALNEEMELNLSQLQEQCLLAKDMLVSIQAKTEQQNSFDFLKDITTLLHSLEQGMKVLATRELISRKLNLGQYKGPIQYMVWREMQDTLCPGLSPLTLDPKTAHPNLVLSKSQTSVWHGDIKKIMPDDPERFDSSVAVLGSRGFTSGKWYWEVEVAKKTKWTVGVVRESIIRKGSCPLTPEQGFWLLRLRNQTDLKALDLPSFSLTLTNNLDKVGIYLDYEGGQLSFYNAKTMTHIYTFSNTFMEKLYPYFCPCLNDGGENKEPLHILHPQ
As to the kind of experiment: co-IP.

No constants are given. Whether binding was seen depends on the method and setting. Binding seen in cells or lysates may run through a third protein. Some entries that bind do so weakly or less than the wild type. Tags and fused reporters may be left off the sequences shown.

B1: Trim69 SPRY-7A mutant, tagged (YFP- or Flag-), of the co-immunoprecipitation (protein, UniProt Q86WT6 1-500)
chain: MEVSTNPSSNIDPGDYVEMNDSITHLPSKVVIQDITMELHCPLCNDWFRDPLMLSCGHNFCEACIQDFWRLQAKETFCPECKMLCQYNNCTFNPVLDKLVEKIKKLPLLKGHPQCPEHGENLKLFSKPDGKLICFQCKDARLSVGQSKEFLQISDAVHFFTEELAIQQGQLETTLKELQTLRNMQKEAIAAHKENKLHLQQHVSMEFLKLHQFLHSKEKDILTELREEGKALNEEMELNLSQLQEQCLLAKDMLVSIQAKTEQQNSFDFLKDITTLLHSLEQGMKVLATRELISRKLNLGQYKGPIQYMVWREMQDTLCPGLSPLTLDPKTAHPNLVLSKSQTSVWHGDIAAIMPDDPERFDSSVAVLGSRGFTSGKWYWEVEVAKKTKWTVGVVRESIIAAGSCPLTPEQGFWLLALANQTDLAALDLPSFSLTLTNNLDKVGIYLDYEGGQLSFYNAKTMTHIYTFSNTFMEKLYPYFCPCLNDGGENKEPLHILHPQ
As to B1, the binding result was “binds”.

Source of the values: doi:10.1101/2025.02.06.636796.
